Data from PubChem BioAssay AID1671190 (National Center for Advancing Translational Sciences (NCATS), 2021).
Values joined by “and” are separate entries in the source; they are usually repeats but may differ in a detail not shown here. Equal entries are not always repeated. The whole screen tested about 580,000 compounds, of which about 6,100 (1.1%) were called active. Inconclusive results, whose numbers are uncertain, are shown with a selection of clear calls. The call rests on the fitted dose curve; in most records, active means well fitted inhibition curve with a large enough effect; inconclusive means small, poorly fitted or top-dose-only effect, or another doubt; inactive means no such curve, though single readings can be large or run the other way. Where the call is inconclusive, the potency comes from a doubtful curve fit.
On the % scale 0 is the no-effect control and ±100 the full control effect; potency means the concentration at half of the fitted maximal effect.

Protein sequences, listed by entry. Tags and fused reporters are not part of them. Lines headed by an entry give the natural chain unless they say otherwise; changes in a name come on top.
UniProt P18054: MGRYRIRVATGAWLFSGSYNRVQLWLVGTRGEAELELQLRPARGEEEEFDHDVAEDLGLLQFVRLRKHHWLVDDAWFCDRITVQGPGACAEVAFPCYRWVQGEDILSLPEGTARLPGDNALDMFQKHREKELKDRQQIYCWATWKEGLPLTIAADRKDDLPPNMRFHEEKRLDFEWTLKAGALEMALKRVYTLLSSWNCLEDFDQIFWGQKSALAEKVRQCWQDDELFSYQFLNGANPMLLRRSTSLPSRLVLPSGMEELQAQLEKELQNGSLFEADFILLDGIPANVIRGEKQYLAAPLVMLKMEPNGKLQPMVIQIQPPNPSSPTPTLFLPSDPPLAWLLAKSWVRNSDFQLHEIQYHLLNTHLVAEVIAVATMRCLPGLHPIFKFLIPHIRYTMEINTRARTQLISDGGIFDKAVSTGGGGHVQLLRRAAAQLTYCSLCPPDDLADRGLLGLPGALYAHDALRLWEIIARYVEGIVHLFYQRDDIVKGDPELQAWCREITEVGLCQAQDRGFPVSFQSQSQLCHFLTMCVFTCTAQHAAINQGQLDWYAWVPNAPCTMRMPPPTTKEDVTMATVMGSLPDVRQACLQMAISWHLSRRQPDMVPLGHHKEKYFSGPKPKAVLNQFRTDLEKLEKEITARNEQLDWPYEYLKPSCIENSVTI

The compounds below were run against Polyunsaturated fatty acid lipoxygenase ALOX12 (Homo sapiens) (UniProt P18054) (assay: Primary qHTS assay for inhibitors of human arachidonate 12S-lipoxygenase (ALOX12): Round 2). Conditions: purified 12hLO, xylenol orange hydroperoxide absorbance; activity change, negative = inhibition: at 108 µM (top of the series) unless noted.
Summary of the method: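 Purified human 12hLO (150 nM final) in 25 mM Hepes, 0.01% Triton X-100, pH 7.0 was preincubated 15 min at room temperature with compound. Then 40 uM arachidonic acid was added, 30 min. Hydroperoxide was read by Fe-XO absorbance ratio 573/405 nm.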
With `Cc1c(C(=O)O)sc2nc(CSc3nnc(-c4ccc(F)cc4)n3C)[nH]c(=O)c12` the Potency was “inactive”.
In the case of `COc1ccc(S(=O)(=O)N2CCN(Cc3nc4ccc(C)cc4o3)CC2)cc1Cl`, the Potency is reported as “inactive”.
In the case of `COc1ccc(C2C(C(=O)c3ccco3)=C(O)C(=O)N2CCOCCO)cc1OC` (stereo not given), the Potency is reported as inconclusive: 0.251 µM [inhibitor, full curve, poor fit].
`CCOc1ccccc1CN1CCC(N2CCCC(C(=O)NC3CC3)C2)CC1` (stereo not given) was tested, and the Potency was “inactive”.
`CCN(CC)C(=O)CC[C@H]1CNC(=O)[C@H]2NCC[C@H]2N1C` was tested, and the Potency was inconclusive: 31.6 µM [inhibitor, partial curve, poor fit].
With `CCOc1ccc(N(CC(=O)N2CCCCC2)S(=O)(=O)c2ccc(Cl)cc2)cc1` the Potency was inconclusive: 50.1 µM [inhibitor, partial curve, poor fit].
`O=C(Nc1cccs1)Nc1ccc(Br)cc1F` was tested, and the Potency was inconclusive: 44.7 µM [inhibitor, partial curve].
With `CC1CN(C(=O)CCCN2C(=O)c3ccccc3C2=O)CC(C)O1` (stereo not given) the Potency was inconclusive: 0.891 µM [inhibitor, partial curve, poor fit].
For `Cc1ccc(-n2cnnn2)cc1NC(=O)c1sccc1C`, the Potency was inconclusive: 20 µM [inhibitor, partial curve, poor fit].
With `O=C1NC(c2cccc3ccccc23)Nc2ccc(Cl)cc21` (stereo not given) the Potency was inconclusive: 0.0316 µM [inhibitor, full curve, poor fit].
In the case of `Cc1ccc(/C=N/NS(=O)(=O)c2ccccc2)o1`, the Potency is reported as “inactive”.
With `C/C(=N\NC(=O)Cc1ccccc1[N+](=O)[O-])c1cccnc1` the Potency was “inactive”.
`Cc1ccc2cc3cc(C(=O)NCc4ccco4)oc3nc2c1` was tested, and the Potency was “inactive”.
With `Cc1ccc(C(c2nnnn2Cc2cccs2)N2CCN(Cc3ccc4c(c3)OCO4)CC2)cc1` (stereo not given) the Potency was “inactive”.
For `CC(=O)c1c(C)[nH]c(C(=O)OCC(=O)Nc2cccc(S(=O)(=O)N3CCCC3)c2)c1C`, the Potency was “inactive”.
With `CCN(C(=O)c1cc2cc(Br)ccc2oc1=O)C1CCCCC1` the Potency was “inactive”.
With `O=C(c1ccc(S(=O)(=O)N2CCCCCC2)cc1)N1CCN(c2ccccn2)CC1` the Potency was “inactive”.
`COc1ccc(NC(=O)N(C)C[C@H]2Oc3ccc(NC(=O)c4ccncc4)cc3C(=O)N([C@H](C)CO)C[C@@H]2C)cc1` was tested, and the Potency was inconclusive: 44.7 µM [inhibitor, partial curve, poor fit].
For `Cc1ccc2nc(CSc3nc(C)nc4c3oc3ccccc34)[nH]c2c1`, the Potency was inconclusive: 89.1 µM [inhibitor, partial curve, poor fit].
For `O=C(NCc1cc(C(F)(F)F)ccc1Cl)c1cccc2c1C(=O)c1ccc(N3CCC(N4CCCCC4)CC3)cc1S2(=O)=O`, the Potency was inconclusive: 79.4 µM [inhibitor, partial curve, poor fit].
For `O=C(/C=C/c1ccccc1)Nc1sc2c(c1C(=O)O)CCC2`, the Potency was inconclusive: 44.7 µM [inhibitor, partial curve].
In the case of `CCOc1ccccc1CNC(=O)C1CCCN(c2nn3cc(-c4ccc(F)cc4)nc3s2)C1` (stereo not given), the Potency is reported as “inactive”.
For `CCCCCCSc1ccc([C@H]2N[C@@](Cc3ccccc3)(C(=O)OC)[C@H]3C(=O)N(C)C(=O)[C@@H]23)cc1`, the Potency was inconclusive: 44.7 µM [inhibitor, partial curve, poor fit].
`CN1CCc2c(sc3nc(SCC(N)=O)n(-c4ccc(Cl)cc4)c(=O)c23)C1` was tested, and the Potency was inconclusive: 89.1 µM [inhibitor, partial curve, poor fit].
For `C/C(=N\Nc1ccc(Cl)c(C(=O)O)c1)c1cccc([N+](=O)[O-])c1`, the Potency was inconclusive: 39.8 µM [inhibitor, partial curve].
`COc1ccc(CC(=O)N2CC[C@@H](CC(=O)O)[C@@H](CCN3CCN(c4ccccn4)CC3)C2)cc1` was tested, and the Potency was inconclusive: 14.1 µM [inhibitor, full curve, poor fit].
For `N=c1ncn(CC(O)CO)c2nc(N3CCOCC3)[nH]c12` (stereo not given), the Potency was inconclusive: 158 µM [inhibitor, partial curve, poor fit].
`COc1ccc(-c2nc(SCCOc3ccccc3Cl)n3[nH]c(=O)cc3n2)cc1` was tested, and the activity change, negative = inhibition was inconclusive: -32.5% [inhibitor].
With `O=C(Nc1ccc(N2CCOCC2)cc1)c1cccnc1` the activity change, negative = inhibition was inconclusive: -30.4% [inhibitor].
`CC(C)CC(c1nnnn1Cc1ccccc1)N1CCN(C(=O)c2ccco2)CC1` (stereo not given) was tested, and the Potency was inconclusive: 56.2 µM [inhibitor, partial curve, poor fit].
In the case of `CCCCC1CCC(=O)O1` (stereo not given), the Potency is reported as “inactive”.
With `COc1cc2c(cc1OC)-c1cc(NC3CCCCC3)nc(=O)n1CC2` the Potency was active: 25.1 µM.
With `COc1cccc(CNC(=O)C2CCN(c3nnc(-n4c(C)ccc4C)s3)CC2)c1OC` the Potency was “inactive”.
In the case of `Cc1n[nH]c(=S)n1/N=C/c1c(O)ccc2ccccc12`, the Potency is reported as inconclusive: 35.5 µM [inhibitor, partial curve, poor fit].
`CCc1nc2ccccc2c(C(=O)OCC(=O)Nc2cccc(S(=O)(=O)NC3=NCCCCC3)c2)c1C` was tested, and the Potency was “inactive”.
With `CCOc1ccc(-c2nc(CSCC(=O)NCc3ccc(Cl)cc3)c(C)o2)cc1` the Potency was inconclusive: 89.1 µM [inhibitor, partial curve, poor fit].
In the case of `COCCSc1ccccc1C(=O)Nc1ccc(Br)cc1`, the Potency is reported as active: 35.5 µM.
In the case of `CC(=O)c1cc2c(cc1N/C(=N/S(=O)(=O)c1ccc(C)cc1)c1ccc(F)cc1)OCO2`, the Potency is reported as inconclusive: 56.2 µM [inhibitor, partial curve, poor fit].
For `CCNC(=O)c1sc(=S)n(-c2ccc(C)cc2)c1N`, the Potency was inconclusive: 31.6 µM [inhibitor, partial curve].
With `O=C(c1ccco1)N1N=C2CCCCCC2C1(O)C(F)(F)F` (stereo not given) the Potency was “inactive”.
`COc1ccc(S(=O)(=O)N2CCN(CCCOc3ccc(F)cc3)CC2)cc1OC` was tested, and the Potency was “inactive”.
`Cc1cc2cc(CN(CCN3CCOCC3)C(=O)Nc3ccccc3F)c(=O)[nH]c2cc1C` was tested, and the Potency was “inactive”.
`CC(C)N1CCN(C(=O)c2ccc3c(c2)C(O)CCCCCN3C)CC1` (stereo not given) was tested, and the Potency was “inactive”.
With `C=C1C(=O)OC2CC1C(OC(C)=O)CC(C)=CCCC(C)=CCCC2(C)O` (stereo not given) the Potency was “inactive”.
For `COc1ccc(-c2ccc3nnc(SCC(=O)Nc4ccc(NC(C)=O)cc4)n3n2)cc1`, the Potency was inconclusive: 50.1 µM [inhibitor, partial curve, poor fit].
For `Clc1cc(CSc2nc3ccccc3o2)cc2c1OCCCO2`, the Potency was “inactive”.
For `Oc1ccc(Nc2nc(-c3ccccc3O)nc3ccccc23)cc1`, the Potency was active: 28.2 µM and inconclusive: 39.8 µM [inhibitor, partial curve, poor fit].
For `Cc1ccc2[nH]c(-c3ccccc3)c(-c3ccccc3)c2c1`, the Potency was inconclusive: 56.2 µM [inhibitor, partial curve, poor fit].
With `CC(C)CCNC(=O)CN1C(=O)CSc2ccc(S(=O)(=O)N3CCCCC3)cc21` the Potency was “inactive”.
In the case of `COc1ccc2c(C)c(CCC(=O)NCCCO)c(=O)oc2c1`, the Potency is reported as “inactive”.
In the case of `CCOC(=O)C1(Cc2cccc(Cl)c2)CCCN(C(=O)c2ccoc2C)C1` (stereo not given), the Potency is reported as “inactive”.
`CN(C)C(CNC(=O)c1cc(Br)ccc1Cl)c1ccco1` (stereo not given) was tested, and the Potency was “inactive”.
`O=C1CC2(CCN(Cc3cccc4ccccc34)CC2)Oc2cc(Cl)ccc21` was tested, and the Potency was inconclusive: 7.08 µM [inhibitor, partial curve, poor fit].
For `CCc1ccc(-c2cn(C3CCCCC3)c(=S)[nH]2)cc1`, the Potency was active: 20 µM.
In the case of `COc1ccc(CCNC(=O)CC(c2ccccc2OC)c2c[nH]c3ccccc23)cc1OC` (stereo not given), the Potency is reported as inconclusive: 12.6 µM [inhibitor, full curve].
`O=[N+]([O-])c1c(NCc2ccco2)ccc2nonc12` was tested, and the Potency was inconclusive: 89.1 µM [inhibitor, single point].
For `CN(C)c1ccc(NC(=S)NC(=O)/C=C/c2ccco2)cc1`, the Potency was inconclusive: 112 µM [inhibitor, partial curve, poor fit].
In the case of `COc1ccc2[nH]cc(CCNc3nc(-c4ccc(N(C)C)cc4)nc4ccccc34)c2c1`, the Potency is reported as inconclusive: 89.1 µM [inhibitor, partial curve, poor fit].
For `O=C(CSc1ccc(Cl)cc1)NCCSc1nc2ccccc2s1`, the Potency was inconclusive: 56.2 µM [inhibitor, partial curve, poor fit].
For `COc1ccccc1CNc1cc(-c2ccoc2)ncn1`, the Potency was inconclusive: 7.08 µM [inhibitor, full curve, poor fit].
In the case of `COc1cccc(-c2n[nH]c3c2CC(=O)N(CC2CCOCC2)C3)c1OC`, the Potency is reported as “inactive”.
With `O=C(Cn1c(=O)n(CC2CCC(C(=O)NCCc3ccccc3)CC2)c(=O)c2ccccc21)Nc1ccccc1` (stereo not given) the Potency was “inactive”.
With `O=C(/C=C/c1cccc([N+](=O)[O-])c1)NCc1ccccc1` the Potency was inconclusive: 112 µM [inhibitor, single point].
In the case of `Cc1ccc(-c2nnc(C3CN(C(=O)Cc4cccc(C)c4)CC34CCOCC4)o2)cc1` (stereo not given), the Potency is reported as “inactive”.
`Cc1ccc2c(Cl)cc(Cl)c(O)c2n1` was tested, and the Potency was inconclusive: 11.2 µM [inhibitor, full curve, poor fit].
For `Cc1cc(OCCCn2ccnc2)cc(C(C)C)c1`, the Potency was inconclusive: 50.1 µM [inhibitor, partial curve, poor fit].
With `C=CCNc1nc(C(=O)OCC(=O)NCC(=O)Nc2ccccc2Br)cs1` the Potency was “inactive”.
In the case of `Cn1c(=O)c(C(=O)c2ccccc2)nc2ccccc21`, the Potency is reported as “inactive”.
In the case of `Cc1cccc(-c2nsc(SCC(=O)Nc3cc(C)on3)n2)c1`, the Potency is reported as inconclusive: 31.6 µM [inhibitor, partial curve, poor fit].
With `O=C(/C=C/c1ccc(Cl)cc1Cl)Nc1ccc(Cl)cc1C(F)(F)F` the Potency was inconclusive: 50.1 µM [inhibitor, single point].
